PubChem BioAssay AID1224830, NIAID – 2016
In all, the deposit lists about 18,000 reagents; this is an unselected part. Over the whole deposit, about 2,900 (16%) got an active call. 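Calls are made per well; low scores hint the gene aids the LPS response, high scores that it dampens it.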 Repeated entries: four replicate wells of each siRNA pool.

Screen: 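Regulators of TLR4 signalling towards TNF-alpha in macrophage-like cells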 (primary screen)
System: human THP-1 monocytic leukaemia cells, TNF dual-luciferase reporter clone, PMA-differentiated to macrophage-like cells
Reagents: siRNA pool against human genes, 50 nM
Timing: LPS for 4 h, given about 3 days after siRNA transfection
Challenge: bacterial LPS (TLR4 ligand), 10 ng/ml
Read-out: 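Ratio of firefly to renilla light, scaled to the plate median and expressed as a robust z-score per replicate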
Direction: TNF reporter robust z-score: higher = stronger TNF reporter response to LPS
Hit rule: 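a well is active when its z-score exceeds 2.8 or falls below -1.5; control wells carry no call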

Target gene	TNF reporter robust z-score	activity call
OR10Z1 (olfactory receptor family 10 subfamily Z member 1)	-0.37	inactive
OR10Z1 (olfactory receptor family 10 subfamily Z member 1)	-0.1	inactive
OR10Z1 (olfactory receptor family 10 subfamily Z member 1)	-0.21	inactive
OR10Z1 (olfactory receptor family 10 subfamily Z member 1)	0.51	inactive
TTLL4 (tubulin tyrosine ligase like 4)	0.17	inactive
TTLL4 (tubulin tyrosine ligase like 4)	0.81	inactive
TTLL4 (tubulin tyrosine ligase like 4)	-0.83	inactive
TTLL4 (tubulin tyrosine ligase like 4)	-0.07	inactive
GABRR3 (gamma-aminobutyric acid type A receptor subunit rho3)	0.58	inactive
GABRR3 (gamma-aminobutyric acid type A receptor subunit rho3)	0.17	inactive
GABRR3 (gamma-aminobutyric acid type A receptor subunit rho3)	-0.23	inactive
GABRR3 (gamma-aminobutyric acid type A receptor subunit rho3)	0.27	inactive
MYO3A (myosin IIIA)	-1.12	inactive
MYO3A (myosin IIIA)	0.24	inactive
MYO3A (myosin IIIA)	0.89	inactive
MYO3A (myosin IIIA)	-0.29	inactive
OR2L2 (olfactory receptor family 2 subfamily L member 2)	0.8	inactive
OR2L2 (olfactory receptor family 2 subfamily L member 2)	0.09	inactive
OR2L2 (olfactory receptor family 2 subfamily L member 2)	-0.23	inactive
OR2L2 (olfactory receptor family 2 subfamily L member 2)	-0.98	inactive
ZNF491 (zinc finger protein 491)	1.39	inactive
ZNF491 (zinc finger protein 491)	-0.41	inactive
ZNF491 (zinc finger protein 491)	-0.77	inactive
ZNF491 (zinc finger protein 491)	-0.82	inactive
CT45A2 (cancer/testis antigen family 45 member A2)	0.7	inactive
CT45A2 (cancer/testis antigen family 45 member A2)	0	inactive
CT45A2 (cancer/testis antigen family 45 member A2)	0.99	inactive
CT45A2 (cancer/testis antigen family 45 member A2)	3.05	active
SSRP1 (structure specific recognition protein 1)	-0.62	inactive
SSRP1 (structure specific recognition protein 1)	0.62	inactive
SSRP1 (structure specific recognition protein 1)	0.76	inactive
SSRP1 (structure specific recognition protein 1)	0.73	inactive
KIF26A (kinesin family member 26A)	-0.27	inactive
KIF26A (kinesin family member 26A)	0.06	inactive
KIF26A (kinesin family member 26A)	-0.1	inactive
KIF26A (kinesin family member 26A)	-0.21	inactive
MRPS16 (mitochondrial ribosomal protein S16)	-0.1	inactive
MRPS16 (mitochondrial ribosomal protein S16)	0.52	inactive
MRPS16 (mitochondrial ribosomal protein S16)	0.92	inactive
MRPS16 (mitochondrial ribosomal protein S16)	0.13	inactive
SPRR2G (small proline rich protein 2G)	2.84	active
SPRR2G (small proline rich protein 2G)	2.06	inactive
SPRR2G (small proline rich protein 2G)	2.72	inactive
SPRR2G (small proline rich protein 2G)	2.08	inactive
CACNG3 (calcium voltage-gated channel auxiliary subunit gamma 3)	0.11	inactive
CACNG3 (calcium voltage-gated channel auxiliary subunit gamma 3)	-0.49	inactive
CACNG3 (calcium voltage-gated channel auxiliary subunit gamma 3)	-0.59	inactive
CACNG3 (calcium voltage-gated channel auxiliary subunit gamma 3)	-0.3	inactive
DENND6B (DENN domain containing 6B)	2.51	inactive
DENND6B (DENN domain containing 6B)	4.07	active
DENND6B (DENN domain containing 6B)	2.05	inactive
DENND6B (DENN domain containing 6B)	0.66	inactive
HIKESHI (heat shock protein nuclear import factor hikeshi)	1.13	inactive
HIKESHI (heat shock protein nuclear import factor hikeshi)	-0.24	inactive
HIKESHI (heat shock protein nuclear import factor hikeshi)	0.15	inactive
HIKESHI (heat shock protein nuclear import factor hikeshi)	0.34	inactive
PDCL3 (phosducin like 3)	0.02	inactive
PDCL3 (phosducin like 3)	0.36	inactive
PDCL3 (phosducin like 3)	1.55	inactive
PDCL3 (phosducin like 3)	1.61	inactive
ALCAM (activated leukocyte cell adhesion molecule)	-1.13	inactive
ALCAM (activated leukocyte cell adhesion molecule)	-0.89	inactive
ALCAM (activated leukocyte cell adhesion molecule)	-1.35	inactive
ALCAM (activated leukocyte cell adhesion molecule)	-1.73	active
CORIN (corin, serine peptidase)	-2.18	active
CORIN (corin, serine peptidase)	-0.47	inactive
CORIN (corin, serine peptidase)	0.27	inactive
CORIN (corin, serine peptidase)	-0.58	inactive
COX17 (cytochrome c oxidase copper chaperone COX17)	0.04	inactive
COX17 (cytochrome c oxidase copper chaperone COX17)	0.2	inactive
COX17 (cytochrome c oxidase copper chaperone COX17)	0.54	inactive
COX17 (cytochrome c oxidase copper chaperone COX17)	-0.11	inactive
GAL (galanin and GMAP prepropeptide)	0.23	inactive
GAL (galanin and GMAP prepropeptide)	0.06	inactive
GAL (galanin and GMAP prepropeptide)	0.71	inactive
GAL (galanin and GMAP prepropeptide)	0.16	inactive
CNN3 (calponin 3)	1.79	inactive
CNN3 (calponin 3)	2	inactive
CNN3 (calponin 3)	1.59	inactive
CNN3 (calponin 3)	2.52	inactive
MATN2 (matrilin 2)	-1.2	inactive
MATN2 (matrilin 2)	-0.39	inactive
MATN2 (matrilin 2)	-0.11	inactive
TBCK (TBC1 domain containing kinase)	-0.05	inactive
TBCK (TBC1 domain containing kinase)	-0.39	inactive
TBCK (TBC1 domain containing kinase)	-0.47	inactive
PAK6-AS1 (PAK6 antisense RNA 1)	0.73	inactive
PAK6-AS1 (PAK6 antisense RNA 1)	0.02	inactive
PAK6-AS1 (PAK6 antisense RNA 1)	-0.37	inactive
PAK6-AS1 (PAK6 antisense RNA 1)	0.43	inactive
C15orf40 (chromosome 15 open reading frame 40)	-0.2	inactive
C15orf40 (chromosome 15 open reading frame 40)	0.85	inactive
C15orf40 (chromosome 15 open reading frame 40)	0.5	inactive
C15orf40 (chromosome 15 open reading frame 40)	0.49	inactive
TMEM53 (transmembrane protein 53)	-0.87	inactive
TMEM53 (transmembrane protein 53)	0.3	inactive
TMEM53 (transmembrane protein 53)	0.53	inactive
TMEM53 (transmembrane protein 53)	-1.05	inactive
MAGIX (MAGI family member, X-linked)	-1.37	inactive
MAGIX (MAGI family member, X-linked)	-0.63	inactive
MAGIX (MAGI family member, X-linked)	-0.92	inactive
MAGIX (MAGI family member, X-linked)	-0.11	inactive
LIN52 (lin-52 DREAM MuvB core complex component)	-0.8	inactive
LIN52 (lin-52 DREAM MuvB core complex component)	-0.82	inactive
LIN52 (lin-52 DREAM MuvB core complex component)	-0.9	inactive
LIN52 (lin-52 DREAM MuvB core complex component)	-1.19	inactive
ASB14 (ankyrin repeat and SOCS box containing 14)	5.43	active
ASB14 (ankyrin repeat and SOCS box containing 14)	4.39	active
ASB14 (ankyrin repeat and SOCS box containing 14)	5.41	active
ASB14 (ankyrin repeat and SOCS box containing 14)	4.12	active

Ordered by “TNF reporter robust z-score” (high to low): some entries from above.
Target gene	TNF reporter robust z-score	activity call
C15orf40 (chromosome 15 open reading frame 40)	0.85	inactive
TMEM53 (transmembrane protein 53)	0.53	inactive
C15orf40 (chromosome 15 open reading frame 40)	0.5	inactive
C15orf40 (chromosome 15 open reading frame 40)	0.49	inactive
PAK6-AS1 (PAK6 antisense RNA 1)	0.43	inactive
TMEM53 (transmembrane protein 53)	0.3	inactive
PAK6-AS1 (PAK6 antisense RNA 1)	0.02	inactive
C15orf40 (chromosome 15 open reading frame 40)	-0.2	inactive
PAK6-AS1 (PAK6 antisense RNA 1)	-0.37	inactive
TMEM53 (transmembrane protein 53)	-0.87	inactive
